This is a selection; strong and weak results do not stand in their true shares.

Amino acid sequences for entries named in this document (tags omitted). A change or cut given only in a name is not applied to a line headed by its entry.
UniProt Q13642: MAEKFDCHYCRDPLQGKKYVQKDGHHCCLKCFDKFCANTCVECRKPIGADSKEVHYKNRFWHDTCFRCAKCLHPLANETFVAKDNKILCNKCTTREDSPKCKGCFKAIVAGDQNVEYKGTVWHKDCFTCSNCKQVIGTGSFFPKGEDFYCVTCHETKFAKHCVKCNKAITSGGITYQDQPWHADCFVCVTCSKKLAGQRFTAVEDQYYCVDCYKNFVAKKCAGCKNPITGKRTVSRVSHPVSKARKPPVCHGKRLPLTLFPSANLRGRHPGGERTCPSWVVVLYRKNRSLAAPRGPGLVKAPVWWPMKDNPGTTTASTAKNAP
UniProt Q14692: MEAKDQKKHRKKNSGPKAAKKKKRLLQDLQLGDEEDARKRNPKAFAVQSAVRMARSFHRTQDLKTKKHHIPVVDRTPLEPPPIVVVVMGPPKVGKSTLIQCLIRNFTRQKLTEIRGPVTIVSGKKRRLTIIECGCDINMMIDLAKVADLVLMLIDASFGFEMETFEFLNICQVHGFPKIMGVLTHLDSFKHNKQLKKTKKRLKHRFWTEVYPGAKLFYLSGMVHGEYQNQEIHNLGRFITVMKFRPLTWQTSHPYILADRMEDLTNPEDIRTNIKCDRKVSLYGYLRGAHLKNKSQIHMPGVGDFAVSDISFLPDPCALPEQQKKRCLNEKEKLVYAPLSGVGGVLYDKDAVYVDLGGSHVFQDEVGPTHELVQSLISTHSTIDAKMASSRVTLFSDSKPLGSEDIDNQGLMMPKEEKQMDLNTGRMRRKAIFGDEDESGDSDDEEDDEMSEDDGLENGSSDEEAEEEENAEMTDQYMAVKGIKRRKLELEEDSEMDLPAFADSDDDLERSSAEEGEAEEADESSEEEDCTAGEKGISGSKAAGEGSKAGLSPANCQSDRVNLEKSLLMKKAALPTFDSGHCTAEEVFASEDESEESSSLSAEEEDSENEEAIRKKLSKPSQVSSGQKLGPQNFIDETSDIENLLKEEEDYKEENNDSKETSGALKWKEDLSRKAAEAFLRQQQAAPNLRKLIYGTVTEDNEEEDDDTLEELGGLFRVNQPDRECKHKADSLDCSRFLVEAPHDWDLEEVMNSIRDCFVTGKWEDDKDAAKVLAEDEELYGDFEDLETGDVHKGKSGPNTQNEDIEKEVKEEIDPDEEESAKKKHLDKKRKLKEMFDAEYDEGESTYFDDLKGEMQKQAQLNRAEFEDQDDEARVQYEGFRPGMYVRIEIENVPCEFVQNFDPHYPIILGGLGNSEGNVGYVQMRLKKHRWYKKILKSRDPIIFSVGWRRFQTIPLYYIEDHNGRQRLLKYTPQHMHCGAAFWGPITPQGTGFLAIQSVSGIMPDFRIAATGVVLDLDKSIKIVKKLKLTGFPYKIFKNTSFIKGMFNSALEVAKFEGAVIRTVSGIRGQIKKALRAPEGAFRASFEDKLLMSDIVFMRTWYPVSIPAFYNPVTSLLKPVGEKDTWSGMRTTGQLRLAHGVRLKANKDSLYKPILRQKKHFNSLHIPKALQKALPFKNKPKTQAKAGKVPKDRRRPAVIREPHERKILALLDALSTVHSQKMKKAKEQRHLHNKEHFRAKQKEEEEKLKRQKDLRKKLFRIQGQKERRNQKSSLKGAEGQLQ
UniProt Q14126: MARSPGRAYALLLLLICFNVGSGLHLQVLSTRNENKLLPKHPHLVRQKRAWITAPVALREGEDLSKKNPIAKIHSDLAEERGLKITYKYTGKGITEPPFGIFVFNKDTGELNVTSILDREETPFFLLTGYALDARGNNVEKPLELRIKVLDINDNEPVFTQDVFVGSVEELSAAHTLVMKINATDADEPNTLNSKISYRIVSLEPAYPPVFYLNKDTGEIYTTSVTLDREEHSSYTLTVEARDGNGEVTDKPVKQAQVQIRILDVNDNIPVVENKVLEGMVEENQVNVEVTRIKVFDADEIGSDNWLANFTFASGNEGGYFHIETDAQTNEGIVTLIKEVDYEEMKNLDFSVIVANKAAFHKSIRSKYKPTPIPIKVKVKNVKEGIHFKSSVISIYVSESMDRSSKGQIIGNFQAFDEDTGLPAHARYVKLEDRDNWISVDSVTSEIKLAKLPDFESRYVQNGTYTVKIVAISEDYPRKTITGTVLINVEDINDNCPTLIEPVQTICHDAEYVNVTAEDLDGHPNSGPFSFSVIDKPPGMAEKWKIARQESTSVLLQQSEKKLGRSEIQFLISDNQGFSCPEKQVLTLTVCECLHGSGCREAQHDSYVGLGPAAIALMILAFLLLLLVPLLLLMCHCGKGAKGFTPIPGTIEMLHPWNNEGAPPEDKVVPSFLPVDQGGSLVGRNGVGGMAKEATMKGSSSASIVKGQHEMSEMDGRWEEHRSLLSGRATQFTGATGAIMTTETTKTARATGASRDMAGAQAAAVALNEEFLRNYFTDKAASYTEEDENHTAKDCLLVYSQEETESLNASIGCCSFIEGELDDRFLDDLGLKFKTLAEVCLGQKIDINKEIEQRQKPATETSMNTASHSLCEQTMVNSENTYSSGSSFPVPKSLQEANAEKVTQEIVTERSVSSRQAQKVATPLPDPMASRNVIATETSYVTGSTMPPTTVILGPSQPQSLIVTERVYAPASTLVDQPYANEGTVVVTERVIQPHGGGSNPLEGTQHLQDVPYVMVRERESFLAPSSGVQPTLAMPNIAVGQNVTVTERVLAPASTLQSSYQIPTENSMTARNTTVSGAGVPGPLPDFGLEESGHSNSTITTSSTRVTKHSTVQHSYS
UniProt Q14139: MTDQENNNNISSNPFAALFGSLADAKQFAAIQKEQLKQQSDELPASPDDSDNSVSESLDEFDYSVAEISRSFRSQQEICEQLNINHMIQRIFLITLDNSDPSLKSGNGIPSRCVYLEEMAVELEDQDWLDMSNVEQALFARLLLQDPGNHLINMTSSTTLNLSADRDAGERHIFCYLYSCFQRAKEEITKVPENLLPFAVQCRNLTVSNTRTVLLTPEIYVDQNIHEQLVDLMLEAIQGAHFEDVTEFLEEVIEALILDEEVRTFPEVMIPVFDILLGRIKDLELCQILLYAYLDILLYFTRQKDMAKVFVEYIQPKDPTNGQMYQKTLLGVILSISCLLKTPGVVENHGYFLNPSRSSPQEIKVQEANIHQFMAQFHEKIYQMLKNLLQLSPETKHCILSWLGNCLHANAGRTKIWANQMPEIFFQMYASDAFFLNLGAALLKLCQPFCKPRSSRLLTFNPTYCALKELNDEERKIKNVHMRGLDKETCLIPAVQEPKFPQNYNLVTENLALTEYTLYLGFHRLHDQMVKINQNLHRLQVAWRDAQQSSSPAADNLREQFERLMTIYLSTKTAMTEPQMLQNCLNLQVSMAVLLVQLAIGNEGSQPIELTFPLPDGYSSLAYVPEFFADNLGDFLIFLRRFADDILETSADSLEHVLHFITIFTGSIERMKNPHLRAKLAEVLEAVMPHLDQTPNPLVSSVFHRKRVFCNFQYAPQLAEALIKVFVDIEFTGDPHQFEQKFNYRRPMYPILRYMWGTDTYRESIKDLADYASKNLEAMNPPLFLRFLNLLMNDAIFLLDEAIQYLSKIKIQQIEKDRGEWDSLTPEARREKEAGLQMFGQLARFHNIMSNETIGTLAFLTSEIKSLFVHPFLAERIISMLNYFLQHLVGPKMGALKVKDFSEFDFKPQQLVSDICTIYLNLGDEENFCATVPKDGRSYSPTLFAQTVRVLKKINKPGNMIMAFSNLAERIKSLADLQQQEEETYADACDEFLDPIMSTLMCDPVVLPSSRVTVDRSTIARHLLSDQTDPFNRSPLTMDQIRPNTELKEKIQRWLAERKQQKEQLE
UniProt Q14168: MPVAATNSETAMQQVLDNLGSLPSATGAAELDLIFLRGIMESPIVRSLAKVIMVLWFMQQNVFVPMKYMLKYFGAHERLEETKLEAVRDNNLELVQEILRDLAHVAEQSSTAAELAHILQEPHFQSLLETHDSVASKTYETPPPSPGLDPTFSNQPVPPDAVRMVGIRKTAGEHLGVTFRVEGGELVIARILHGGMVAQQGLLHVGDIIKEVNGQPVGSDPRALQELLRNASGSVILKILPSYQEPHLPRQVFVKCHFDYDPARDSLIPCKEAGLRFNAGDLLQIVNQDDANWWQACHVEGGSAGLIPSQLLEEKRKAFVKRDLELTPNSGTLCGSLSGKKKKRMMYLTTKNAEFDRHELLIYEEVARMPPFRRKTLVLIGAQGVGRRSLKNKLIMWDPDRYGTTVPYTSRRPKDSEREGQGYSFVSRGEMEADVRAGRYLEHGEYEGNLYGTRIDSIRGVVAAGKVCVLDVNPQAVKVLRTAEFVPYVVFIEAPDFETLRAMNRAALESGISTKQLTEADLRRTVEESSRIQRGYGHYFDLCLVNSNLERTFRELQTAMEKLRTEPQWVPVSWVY
UniProt Q13895: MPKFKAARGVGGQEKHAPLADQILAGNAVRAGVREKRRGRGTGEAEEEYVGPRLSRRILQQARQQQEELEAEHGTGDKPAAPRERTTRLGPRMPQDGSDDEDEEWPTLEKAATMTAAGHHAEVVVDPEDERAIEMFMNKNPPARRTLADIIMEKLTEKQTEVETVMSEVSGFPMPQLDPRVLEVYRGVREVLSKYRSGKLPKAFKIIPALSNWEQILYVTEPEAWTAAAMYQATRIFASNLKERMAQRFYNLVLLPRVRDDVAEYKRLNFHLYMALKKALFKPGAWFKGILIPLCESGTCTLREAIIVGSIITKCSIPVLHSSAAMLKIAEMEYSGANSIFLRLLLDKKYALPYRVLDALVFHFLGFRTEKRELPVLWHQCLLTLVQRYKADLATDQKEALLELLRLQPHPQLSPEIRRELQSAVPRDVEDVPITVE
UniProt Q14566: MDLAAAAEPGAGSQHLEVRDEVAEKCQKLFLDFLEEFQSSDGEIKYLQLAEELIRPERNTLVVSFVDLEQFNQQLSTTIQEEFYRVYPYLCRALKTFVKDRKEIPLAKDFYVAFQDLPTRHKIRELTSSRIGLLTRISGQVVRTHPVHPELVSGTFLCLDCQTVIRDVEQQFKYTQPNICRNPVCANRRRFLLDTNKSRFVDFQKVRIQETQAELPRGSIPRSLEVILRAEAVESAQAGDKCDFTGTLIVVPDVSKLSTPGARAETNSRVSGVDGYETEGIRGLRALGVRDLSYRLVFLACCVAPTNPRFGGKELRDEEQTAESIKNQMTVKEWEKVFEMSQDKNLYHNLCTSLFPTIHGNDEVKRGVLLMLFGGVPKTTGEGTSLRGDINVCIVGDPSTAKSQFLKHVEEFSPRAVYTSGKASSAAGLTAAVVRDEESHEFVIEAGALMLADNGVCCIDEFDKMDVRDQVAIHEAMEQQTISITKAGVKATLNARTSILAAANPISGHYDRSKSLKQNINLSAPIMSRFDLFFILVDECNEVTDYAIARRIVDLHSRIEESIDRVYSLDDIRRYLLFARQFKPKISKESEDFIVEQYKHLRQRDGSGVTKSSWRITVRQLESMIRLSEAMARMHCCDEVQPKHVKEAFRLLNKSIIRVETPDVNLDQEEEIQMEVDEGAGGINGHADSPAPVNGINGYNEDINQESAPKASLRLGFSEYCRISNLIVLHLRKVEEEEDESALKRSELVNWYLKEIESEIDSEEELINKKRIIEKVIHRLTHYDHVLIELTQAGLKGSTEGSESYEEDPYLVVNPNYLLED
UniProt Q14697: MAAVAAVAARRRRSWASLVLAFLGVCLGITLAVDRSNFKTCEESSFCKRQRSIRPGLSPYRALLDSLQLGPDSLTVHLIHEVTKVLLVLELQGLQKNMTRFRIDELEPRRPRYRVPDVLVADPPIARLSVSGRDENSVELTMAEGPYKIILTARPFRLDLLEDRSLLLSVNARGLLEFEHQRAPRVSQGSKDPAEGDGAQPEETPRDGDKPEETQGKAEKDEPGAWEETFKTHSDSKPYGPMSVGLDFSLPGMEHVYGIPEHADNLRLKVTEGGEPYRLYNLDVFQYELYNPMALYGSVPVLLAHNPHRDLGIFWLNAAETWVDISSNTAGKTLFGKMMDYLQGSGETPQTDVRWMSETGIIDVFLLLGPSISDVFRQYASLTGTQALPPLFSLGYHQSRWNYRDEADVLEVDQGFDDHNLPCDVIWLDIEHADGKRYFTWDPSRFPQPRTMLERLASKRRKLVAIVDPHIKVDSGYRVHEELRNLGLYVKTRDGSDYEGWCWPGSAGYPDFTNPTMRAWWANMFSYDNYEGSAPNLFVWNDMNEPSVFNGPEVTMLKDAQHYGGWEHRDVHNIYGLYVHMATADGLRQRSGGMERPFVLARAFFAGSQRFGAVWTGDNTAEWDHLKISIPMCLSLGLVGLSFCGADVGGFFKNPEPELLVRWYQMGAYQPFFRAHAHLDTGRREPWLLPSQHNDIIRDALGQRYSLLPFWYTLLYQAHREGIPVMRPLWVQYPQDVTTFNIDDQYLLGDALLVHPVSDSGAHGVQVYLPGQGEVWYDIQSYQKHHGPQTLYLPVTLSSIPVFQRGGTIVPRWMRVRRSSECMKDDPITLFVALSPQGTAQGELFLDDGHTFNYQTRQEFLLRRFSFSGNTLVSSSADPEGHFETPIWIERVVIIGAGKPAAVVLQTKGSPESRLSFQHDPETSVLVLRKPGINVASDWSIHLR

Compound in the assay: COC(=O)C#Cc1ccccc1 [methyl 3-phenylpropiolate]
Description: log2 ratio of iodoacetamide-alkyne labeling of the cysteine site, DMSO over compound (competition); higher = stronger covalent engagement of the cysteine by the compound, active = 1 or more. The following applies: 500 µM; treatment time 1 h; system: HEK293T cell lysate. The gist of the method:
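HEK293T lysate (2 mg/mL) was incubated with electrophile (500 µM) or vehicle for 1 h at ambient temperature and then with iodoacetamide alkyne for 1 h. Labelled proteins were clicked to sCIP-TMT reagents, pooled, digested, enriched on streptavidin and measured by Orbitrap Eclipse LC-MS/MS with FAIMS, with FragPipe quantification. The per-cysteine log2 competition ratio is mean control-channel reporter intensity over mean compound-channel reporter intensity. Across three replicates with duplicate channels, cysteines quantified in only one replicate were excluded.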
Regarding TRIP12 C35 (UniProt Q14669), the “log2 ratio of iodoacetamide-alkyne labeling” value (from here on “log2 ratio”) is inactive: 0.627.

In the case of HLTF C360 (UniProt Q14527), the “log2 ratio” value was inactive: 0.323.

Regarding FHL1 C132 (UniProt Q13642), the “log2 ratio” value was inactive: -0.164. Regarding WTAP C270 (UniProt Q15007), the “log2 ratio” value is inactive: 0.496.

In the case of UniProt Q14562_C123, the “log2 ratio” value was inactive: 0.177.

For KPNB1 C826 (UniProt Q14974), the “log2 ratio” value was inactive: 0.76.

For the target BMS1 C895 (UniProt Q14692), the “log2 ratio” value was inactive: 0.11. With NCAPD2 C1249 (UniProt Q15021), the “log2 ratio” value was inactive: 0.179. SMC1A C1115 (UniProt Q14683): the “log2 ratio” value was inactive: 0.186.

As for FLNC C1448 (UniProt Q14315), the “log2 ratio” value is inactive: 0.432. For the target UniProt Q14241_C339, the “log2 ratio” value was inactive: 0.0503. With CKAP5 C1946 (UniProt Q14008), the “log2 ratio” value is inactive: 0.76. On to SPTAN1 C956 (UniProt Q13813), for which the “log2 ratio” value is inactive: 0.244. Then MDC1 C1720 (UniProt Q14676), with inactive: 0.5; and FHL1 C65 (UniProt Q13642), with inactive: -0.131. Consider GAPVD1 C568 (UniProt Q14C86), for which the “log2 ratio” value was inactive: 0.475. As to CAMK1 C354 (UniProt Q14012), the “log2 ratio” value is inactive: 0.189.

For the target DSG2 C871 (UniProt Q14126), the “log2 ratio” value was inactive: 0.132.

With UBE4A C710 (UniProt Q14139), the “log2 ratio” value was inactive: -0.03. Turning to MPP2 C334 (UniProt Q14168), the “log2 ratio” value was inactive: 0.598. For MDC1 C26 (UniProt Q14676), the “log2 ratio” value was inactive: 0.436.

For the target BYSL C381 (UniProt Q13895), the “log2 ratio” value was inactive: 0.345. Then ZMYM3 C557 (UniProt Q14202), with inactive: 0.228; and CHD4 C1594 (UniProt Q14839), with inactive: 0.364. To DDX39B C165 (UniProt Q13838) belongs inactive: -0.0098. On to FLNC C1109 (UniProt Q14315), for which the “log2 ratio” value was inactive: 0.096. As for UniProt Q14197_C82, the “log2 ratio” value was inactive: 0.205. To MCM6 C242 (UniProt Q14566) belongs inactive: 0.192; to SART3 C670 (UniProt Q15020), inactive: 0.486.

With SAFB2 C449 (UniProt Q14151), the “log2 ratio” value is inactive: 0.0863. UBE4A C989 (UniProt Q14139): the “log2 ratio” value is inactive: 0.466. For the target GANAB C502 (UniProt Q14697), the “log2 ratio” value was inactive: 0.0736. As for FHL3 C7 (UniProt Q13643), the “log2 ratio” value is inactive: 0.165. On to SAFB2 C361 (UniProt Q14151), for which the “log2 ratio” value is inactive: 0.0563.

With PDCD11 C1218 (UniProt Q14690), the “log2 ratio” value is inactive: 0.277. In the case of ESPL1 C1369 (UniProt Q14674), the “log2 ratio” value is inactive: 0.218. Turning to UniProt Q13885_C239, the “log2 ratio” value was inactive: 0.464.

The values are drawn from the supplement of paper PMC11006884.
